This experiment has as its target FLAG-BPLF1 (vDUB, N-terminal domain of the Epstein-Barr virus large tegument protein BPLF1) (Epstein-Barr virus) (UniProt P03186). Put plainly: affinity purification with mass spectrometry.

By UniProt entry, the sequences of proteins in these tests, tags left out. Residues count along the entry.
UniProt P03186, residues 1-235: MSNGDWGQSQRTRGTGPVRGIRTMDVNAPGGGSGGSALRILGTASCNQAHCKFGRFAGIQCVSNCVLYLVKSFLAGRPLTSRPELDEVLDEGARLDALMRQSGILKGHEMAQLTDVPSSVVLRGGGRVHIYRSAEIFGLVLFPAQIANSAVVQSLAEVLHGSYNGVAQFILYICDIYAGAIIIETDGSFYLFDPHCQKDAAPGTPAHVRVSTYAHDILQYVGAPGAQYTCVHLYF
UniProt P46379: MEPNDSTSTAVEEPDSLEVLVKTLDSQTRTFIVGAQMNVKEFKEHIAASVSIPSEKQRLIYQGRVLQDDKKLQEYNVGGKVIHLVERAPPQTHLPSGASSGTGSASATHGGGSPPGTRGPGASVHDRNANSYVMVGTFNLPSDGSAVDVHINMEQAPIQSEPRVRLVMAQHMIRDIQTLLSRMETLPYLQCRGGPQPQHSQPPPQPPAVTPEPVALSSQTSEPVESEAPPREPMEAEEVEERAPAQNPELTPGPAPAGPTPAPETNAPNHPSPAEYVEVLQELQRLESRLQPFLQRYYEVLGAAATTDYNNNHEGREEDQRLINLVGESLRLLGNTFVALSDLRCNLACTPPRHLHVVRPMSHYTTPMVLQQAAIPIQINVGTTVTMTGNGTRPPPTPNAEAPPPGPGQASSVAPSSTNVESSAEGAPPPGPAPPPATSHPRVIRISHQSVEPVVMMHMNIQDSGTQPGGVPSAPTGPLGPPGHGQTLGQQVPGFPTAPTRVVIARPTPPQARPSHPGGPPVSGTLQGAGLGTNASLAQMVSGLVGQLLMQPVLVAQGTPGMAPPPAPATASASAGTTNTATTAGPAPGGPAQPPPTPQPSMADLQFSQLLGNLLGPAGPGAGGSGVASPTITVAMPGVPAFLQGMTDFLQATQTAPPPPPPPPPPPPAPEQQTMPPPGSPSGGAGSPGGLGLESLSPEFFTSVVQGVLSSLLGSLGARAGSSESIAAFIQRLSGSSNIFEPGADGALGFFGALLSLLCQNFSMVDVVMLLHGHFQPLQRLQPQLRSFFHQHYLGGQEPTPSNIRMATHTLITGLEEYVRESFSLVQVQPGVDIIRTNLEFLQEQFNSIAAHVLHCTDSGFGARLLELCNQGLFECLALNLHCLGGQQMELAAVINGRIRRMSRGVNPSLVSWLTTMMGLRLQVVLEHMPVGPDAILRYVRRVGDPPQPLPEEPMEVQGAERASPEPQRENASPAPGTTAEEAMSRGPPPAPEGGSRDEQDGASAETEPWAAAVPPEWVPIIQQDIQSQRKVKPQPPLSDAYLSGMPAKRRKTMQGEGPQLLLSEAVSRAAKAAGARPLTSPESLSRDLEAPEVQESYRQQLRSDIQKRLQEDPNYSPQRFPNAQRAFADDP
UniProt Q9BY44: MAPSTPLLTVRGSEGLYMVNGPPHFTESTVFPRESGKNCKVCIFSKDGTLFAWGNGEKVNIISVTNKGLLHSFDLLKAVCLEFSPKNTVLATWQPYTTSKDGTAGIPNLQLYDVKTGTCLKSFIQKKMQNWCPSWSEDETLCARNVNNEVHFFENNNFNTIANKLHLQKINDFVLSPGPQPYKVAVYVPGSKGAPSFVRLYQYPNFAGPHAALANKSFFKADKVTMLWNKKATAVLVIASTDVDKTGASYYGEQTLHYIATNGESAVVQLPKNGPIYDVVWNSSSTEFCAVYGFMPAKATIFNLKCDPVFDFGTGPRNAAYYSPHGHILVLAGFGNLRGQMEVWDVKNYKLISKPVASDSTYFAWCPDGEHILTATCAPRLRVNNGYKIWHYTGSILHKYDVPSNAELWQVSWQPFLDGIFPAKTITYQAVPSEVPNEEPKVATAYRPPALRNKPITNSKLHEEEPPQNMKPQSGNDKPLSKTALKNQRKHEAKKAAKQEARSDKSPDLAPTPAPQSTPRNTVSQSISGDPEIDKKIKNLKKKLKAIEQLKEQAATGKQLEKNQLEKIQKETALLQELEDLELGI
UniProt P60468: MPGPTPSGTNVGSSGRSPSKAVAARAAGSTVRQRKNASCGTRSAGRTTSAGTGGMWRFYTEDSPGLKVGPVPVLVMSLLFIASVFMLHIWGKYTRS
UniProt P00387: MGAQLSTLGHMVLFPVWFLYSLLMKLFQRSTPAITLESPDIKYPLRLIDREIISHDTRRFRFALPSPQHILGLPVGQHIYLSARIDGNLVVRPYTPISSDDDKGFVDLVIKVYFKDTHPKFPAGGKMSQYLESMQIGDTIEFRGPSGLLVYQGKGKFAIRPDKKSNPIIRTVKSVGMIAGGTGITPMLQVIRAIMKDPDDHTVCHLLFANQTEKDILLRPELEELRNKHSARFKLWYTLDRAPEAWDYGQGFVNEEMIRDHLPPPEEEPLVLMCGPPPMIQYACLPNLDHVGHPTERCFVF
UniProt Q04637: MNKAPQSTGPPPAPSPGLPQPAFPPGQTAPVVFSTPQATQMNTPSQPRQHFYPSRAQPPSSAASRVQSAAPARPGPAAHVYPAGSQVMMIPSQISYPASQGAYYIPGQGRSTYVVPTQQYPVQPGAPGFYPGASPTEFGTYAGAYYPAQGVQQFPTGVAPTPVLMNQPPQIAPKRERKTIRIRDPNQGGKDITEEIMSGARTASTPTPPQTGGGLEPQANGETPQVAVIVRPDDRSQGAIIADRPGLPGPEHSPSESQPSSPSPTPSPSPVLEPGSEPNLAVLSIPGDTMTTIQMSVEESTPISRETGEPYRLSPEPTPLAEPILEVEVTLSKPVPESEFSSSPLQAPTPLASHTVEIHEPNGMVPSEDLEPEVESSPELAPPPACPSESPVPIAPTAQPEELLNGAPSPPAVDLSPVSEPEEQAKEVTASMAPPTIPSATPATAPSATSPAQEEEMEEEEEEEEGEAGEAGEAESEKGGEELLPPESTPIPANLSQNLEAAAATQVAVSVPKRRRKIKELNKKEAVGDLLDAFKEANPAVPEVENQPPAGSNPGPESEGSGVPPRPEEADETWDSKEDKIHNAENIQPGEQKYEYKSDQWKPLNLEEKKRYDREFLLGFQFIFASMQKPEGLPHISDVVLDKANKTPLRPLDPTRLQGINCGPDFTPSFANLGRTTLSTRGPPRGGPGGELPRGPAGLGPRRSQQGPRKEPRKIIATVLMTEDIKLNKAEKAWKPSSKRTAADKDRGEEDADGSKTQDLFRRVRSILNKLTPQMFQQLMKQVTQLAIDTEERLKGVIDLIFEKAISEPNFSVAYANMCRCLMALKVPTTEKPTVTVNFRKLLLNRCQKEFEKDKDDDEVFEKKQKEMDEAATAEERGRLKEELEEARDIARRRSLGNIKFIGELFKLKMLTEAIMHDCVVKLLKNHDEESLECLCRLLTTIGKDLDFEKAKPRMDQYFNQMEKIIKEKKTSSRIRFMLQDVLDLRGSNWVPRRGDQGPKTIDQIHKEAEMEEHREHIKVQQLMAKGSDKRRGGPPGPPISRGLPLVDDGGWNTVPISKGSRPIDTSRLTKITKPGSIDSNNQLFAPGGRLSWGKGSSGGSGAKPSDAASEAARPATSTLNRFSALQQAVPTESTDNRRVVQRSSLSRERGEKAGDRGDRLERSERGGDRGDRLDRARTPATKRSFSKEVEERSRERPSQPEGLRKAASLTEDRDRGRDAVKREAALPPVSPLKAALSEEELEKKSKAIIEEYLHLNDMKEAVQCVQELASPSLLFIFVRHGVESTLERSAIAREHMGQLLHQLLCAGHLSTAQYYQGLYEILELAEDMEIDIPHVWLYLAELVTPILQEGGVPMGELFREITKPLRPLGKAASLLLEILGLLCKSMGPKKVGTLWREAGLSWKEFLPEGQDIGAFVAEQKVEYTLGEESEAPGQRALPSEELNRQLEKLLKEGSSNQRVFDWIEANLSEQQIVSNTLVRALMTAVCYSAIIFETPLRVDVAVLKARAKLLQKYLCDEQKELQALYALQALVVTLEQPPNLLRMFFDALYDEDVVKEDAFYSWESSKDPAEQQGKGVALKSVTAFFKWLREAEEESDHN
UniProt Q9UGP8: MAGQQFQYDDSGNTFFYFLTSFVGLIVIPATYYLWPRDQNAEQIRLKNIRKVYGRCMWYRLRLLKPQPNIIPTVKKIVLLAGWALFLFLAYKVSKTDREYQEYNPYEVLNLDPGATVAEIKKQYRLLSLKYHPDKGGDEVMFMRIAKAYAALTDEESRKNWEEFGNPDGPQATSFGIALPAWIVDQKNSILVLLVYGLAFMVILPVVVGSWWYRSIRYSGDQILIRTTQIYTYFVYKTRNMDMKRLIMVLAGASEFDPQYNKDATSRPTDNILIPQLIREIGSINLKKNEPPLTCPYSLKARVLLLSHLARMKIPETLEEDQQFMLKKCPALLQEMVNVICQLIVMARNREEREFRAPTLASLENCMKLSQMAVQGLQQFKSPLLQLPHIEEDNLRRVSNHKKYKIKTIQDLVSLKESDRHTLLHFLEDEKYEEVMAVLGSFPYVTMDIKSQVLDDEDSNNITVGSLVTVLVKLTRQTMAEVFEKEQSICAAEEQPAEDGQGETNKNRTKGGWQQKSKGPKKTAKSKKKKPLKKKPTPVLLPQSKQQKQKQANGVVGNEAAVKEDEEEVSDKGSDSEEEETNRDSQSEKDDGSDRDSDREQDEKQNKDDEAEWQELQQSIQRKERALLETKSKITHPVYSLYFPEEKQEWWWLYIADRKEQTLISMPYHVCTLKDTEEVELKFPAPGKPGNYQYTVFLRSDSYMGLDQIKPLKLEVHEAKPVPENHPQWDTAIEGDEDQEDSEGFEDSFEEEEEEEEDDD

No constants are given. Whether binding was seen depends on the method and setting. Binding seen in cells or lysates may run through a third protein. Here binding means that the protein was enriched with, or labelled near, the bait; the list need not be complete.

Regarding “BAG6 (BAG cochaperone 6) (from UniProt P46379 1-1132)”, the binding result is recorded as “binds”.
In the case of “EIF2A, endogenous (from UniProt Q9BY44 1-585)”, the binding entry is “binds”.
Turning to “SEC61B subunit of the SEC61 translocon (from UniProt P60468 1-96)”, the binding entry is “binds”.
For “CYB5R3 (cytochrome b5 reductase 3), endogenous (from UniProt P00387 1-301) (enzyme)”, the binding entry is recorded as “binds”.
On to “EIF4G1, endogenous (from UniProt Q04637 1-1599)”, for which the binding entry is recorded as “binds”.
As for SEC63 (from UniProt Q9UGP8 1-760), the binding entry is recorded as “binds”.

B1: SRPRB (SRP receptor subunit beta) (protein, UniProt Q9Y5M8 1-271)
chain: MASADSRRVADGGGAGGTFQPYLDTLRQELQQTDPTLLSVVVAVLAVLLTLVFWKLIRSRRSSQRAVLLVGLCDSGKTLLFVRLLTGLYRDTQTSITDSCAVYRVNNNRGNSLTLIDLPGHESLRLQFLERFKSSARAIVFVVDSAAFQREVKDVAEFLYQVLIDSMGLKNTPSFLIACNKQDIAMAKSAKLIQQQLEKELNTLRVTRSAAPSTLDSSSTAPAQLGKKGKEFEFSQLPLKVEFLECSAKGGRGDVGSADIQDLEKWLAKIA
In the case of B1, the binding entry is on record as “binds”.

B2: RPN1 (ribophorin I), endogenous (protein, UniProt P04843 24-607)
chain: ASSEAPPLINEDVKRTVDLSSHLAKVTAEVVLAHLGGGSTSRATSFLLALEPELEARLAHLGVQVKGEDEEENNLEVRETKIKGKSGRFFTVKLPVALDPGAKISVIVETVYTHVLHPYPTQITQSEKQFVVFEGNHYFYSPYPTKTQTMRVKLASRNVESYTKLGNPTRSEDLLDYGPFRDVPAYSQDTFKVHYENNSPFLTITSMTRVIEVSHWGNIAVEENVDLKHTGAVLKGPFSRYDYQRQPDSGISSIRSFKTILPAAAQDVYYRDEIGNVSTSHLLILDDSVEMEIRPRFPLFGGWKTHYIVGYNLPSYEYLYNLGDQYALKMRFVDHVFDEQVIDSLTVKIILPEGAKNIEIDSPYEISRAPDELHYTYLDTFGRPVIVAYKKNLVEQHIQDIVVHYTFNKVLMLQEPLLVVAAFYILFFTVIIYVRLDFSITKDPAAEARMKVACITEQVLTLVNKRIGLYRHFDETVNRYKQSRDISTLNSGKKSLETEHKALTSEIALLQSRLKTEGSDLCDRVSEMQKLDAQVKELVLKSAVEAERLVAGKLKKDTYIENEKLISGKRQELVTKIDHILDAL
For the molecule B2, the binding entry was “binds”.

B3: ZNF598 (zink finger protein 598, E3 ubiquitin ligase) (enzyme, UniProt Q86UK7 1-904)
chain: MAAAGGAEGRRAALEAAAAAAPERGGGSCVLCCGDLEATALGRCDHPVCYRCSTKMRVLCEQRYCAVCREELRQVVFGKKLPAFATIPIHQLQHEKKYDIYFADGKVYALYRQLLQHECPRCPELPPFSLFGDLEQHMRRQHELFCCRLCLQHLQIFTYERKWYSRKDLARHRMQGDPDDTSHRGHPLCKFCDERYLDNDELLKHLRRDHYFCHFCDSDGAQDYYSDYAYLREHFREKHFLCEEGRCSTEQFTHAFRTEIDLKAHRTACHSRSRAEARQNRHIDLQFSYAPRHSRRNEGVVGGEDYEEVDRYSRQGRVARAGTRGAQQSRRGSWRYKREEEDREVAAAVRASVAAQQQEEARRSEDQEEGGRPKKEEAAARGPEDPRGPRRSPRTQGEGPGPKETSTNGPVSQEAFSVTGPAAPGCVGVPGALPPPSPKLKDEDFPSLSASTSSSCSTAATPGPVGLALPYAIPARGRSAFQEEDFPALVSSVPKPGTAPTSLVSAWNSSSSSKKVAQPPLSAQATGSGQPTRKAGKGSRGGRKGGPPFTQEEEEDGGPALQELLSTRPTGSVSSTLGLASIQPSKVGKKKKVGSEKPGTTLPQPPPATCPPGALQAPEAPASRAEGPVAVVVNGHTEGPAPARSAPKEPPGLPRPLGSFPCPTPQEDFPALGGPCPPRMPPPPGFSAVVLLKGTPPPPPPGLVPPISKPPPGFSGLLPSPHPACVPSPATTTTTKAPRLLPAPRAYLVPENFRERNLQLIQSIRDFLQSDEARFSEFKSHSGEFRQGLISAAQYYKSCRDLLGENFQKVFNELLVLLPDTAKQQELLSAHTDFCNREKPLSTKSKKNKKSAWQATTQQAGLDCRVCPTCQQVLAHGDASSHQALHAARDDDFPSLQAIARIIT
As for B3, the binding result is recorded as “binds”.

B4: NOMO3 subunit of the multi-pass translocon/MTP complex (protein, UniProt P69849 32-1222)
chain: SEDIVVGCGGFVKSDVEINYSLIEIKLYTKHGTLKYQTDCAPNNGYFMIPLYDKGDFILKIEPPLGWSFEPTTVELHVDGVSDICTKGGDINFVFTGFSVNGKVLSKGQPLGPAGVQVSLRNTGTEAKIQSTVTQPGGKFAFFKVLPGDYEILATHPTWALKEASTTVRVTNSNANAASPLIVAGYNVSGSVRSDGEPMKGVKFLLFSSLVTKEDVLGCNVSPVPGFQPQDESLVYLCYTVSREDGSFSFYSLPSGGYTVIPFYRGERITFDVAPSRLDFTVEHDSLKIEPVFHVMGFSVTGRVLNGPEGDGVPEAVVTLNNQIKVKTKADGSFRLENITTGTYTIHAQKEHLYFETVTIKIAPNTPQLADIVATGFSVCGQISIIRFPDTVKQMNKYKVVLSSQDKDKSLVTVETDAHGSFCFKANPGTYKVQVMVPEAETRAGLTLKPQTFPLTVTDRPVMDVAFVQFLASVSGKVSCLDTCGDLLVTLQSLSRQGEKRSLQLSGKVNAMTFTFDNVLPGKYKISIMHEDWCWKNKSLEVEVLEDDVSAVEFRQTGYMLRCSLSHAITLEFYQDGNGRENVGIYNLSKGVNRFCLSKPGVYKVTPRSCHRFEQAFYTYDTSSPSILTLTAIRHHVLGTITTDKMMDVTVTIKSSIDSEPALVLGPLKSVQELRREQQLAEIEARRQEREKNGNEEGEERMTKPPVQEMVDELQGPFSYDFSYWARSGEKITVTPSSKELLFYPPSMEAVVSGESCPGKLIEIHGKAGLFLEGQIHPELEGVEIVISEKGASSPLITVFTDDKGAYSVGPLHSDLEYTVTSQKEGYVLTAVEGTIGDFKAYALAGVSFEIKAEDDQPLPGVLLSLSGGLFRSNLLTQDNGILTFSNLSPGQYYFKPMMKEFRFEPSSQMIEVQEGQNLKITITGYRTAYSCYGTVSSLNGEPEQGVAMEAVGQNDCSIYGEDTVTDEEGKFRLRGLLPGCVYHVQLKAEGNDHIERALPHHRVIEVGNNDIDDVNIIVFRQINQFDLSGNVITSSEYLPTLWVKLYKSENLDNPIQTVSLGQSLFFHFPPLLRDGENYVVLLDSTLPRSQYDYILPQVSFTAVGYHKHITLIFNPTRKLPEQDIAQGSYIALPLTLLVLLAGYNHDKLIPLLLQLTSRLQGVGALGQAASDNSGPEDAKRQAKKQKTRRT
As to B4, the binding result was “binds”.

B5: SRP68 subunit of the signal recognition particle (protein, UniProt Q9UHB9 1-627)
chain: MAAEKQVPGGGGGGGSGGGGGSGGGGSGGGRGAGGEENKENERPSAGSKANKEFGDSLSLEILQIIKESQQQHGLRHGDFQRYRGYCSRRQRRLRKTLNFKMGNRHKFTGKKVTEELLTDNRYLLLVLMDAERAWSYAMQLKQEANTEPRKRFHLLSRLRKAVKHAEELERLCESNRVDAKTKLEAQAYTAYLSGMLRFEHQEWKAAIEAFNKCKTIYEKLASAFTEEQAVLYNQRVEEISPNIRYCAYNIGDQSAINELMQMRLRSGGTEGLLAEKLEALITQTRAKQAATMSEVEWRGRTVPVKIDKVRIFLLGLADNEAAIVQAESEETKERLFESMLSECRDAIQVVREELKPDQKQRDYILEGEPGKVSNLQYLHSYLTYIKLSTAIKRNENMAKGLQRALLQQQPEDDSKRSPRPQDLIRLYDIILQNLVELLQLPGLEEDKAFQKEIGLKTLVFKAYRCFFIAQSYVLVKKWSEALVLYDRVLKYANEVNSDAGAFKNSLKDLPDVQELITQVRSEKCSLQAAAILDANDAHQTETSSSQVKDNKPLVERFETFCLDPSLVTKQANLVHFPPGFQPIPCKPLFFDLALNHVAFPPLEDKLEQKTKSGLTGYIKGIFGFRS
With B5, the binding result was “binds”.

B6: EMC1 subunit of the endoplasmic reticulum membrane protein complex/EMC (protein, UniProt Q8N766 23-993)
chain: YEDQVGKFDWRQQYVGKVKFASLEFSPGSKKLVVATEKNVIAALNSRTGEILWRHVDKGTAEGAVDAMLLHGQDVITVSNGGRIMRSWETNIGGLNWEITLDSGSFQALGLVGLQESVRYIAVLKKTTLALHHLSSGHLKWVEHLPESDSIHYQMVYSYGSGVVWALGVVPFSHVNIVKFNVEDGEIVQQVRVSTPWLQHLSGACGVVDEAVLVCPDPSSRSLQTLALETEWELRQIPLQSLDLEFGSGFQPRVLPTQPNPVDASRAQFFLHLSPSHYALLQYHYGTLSLLKNFPQTALVSFATTGEKTVAAVMACRNEVQKSSSSEDGSMGSFSEKSSSKDSLACFNQTYTINLYLVETGRRLLDTTITFSLEQSGTRPERLYIQVFLKKDDSVGYRALVQTEDHLLLFLQQLAGKVVLWSREESLAEVVCLEMVDLPLTGAQAELEGEFGKKADGLLGMFLKRLSSQLILLQAWTSHLWKMFYDARKPRSQIKNEINIDTLARDEFNLQKMMVMVTASGKLFGIESSSGTILWKQYLPNVKPDSSFKLMVQRTTAHFPHPPQCTLLVKDKESGMSSLYVFNPIFGKWSQVAPPVLKRPILQSLLLPVMDQDYAKVLLLIDDEYKVTAFPATRNVLRQLHELAPSIFFYLVDAEQGRLCGYRLRKDLTTELSWELTIPPEVQRIVKVKGKRSSEHVHSQGRVMGDRSVLYKSLNPNLLAVVTESTDAHHERTFIGIFLIDGVTGRIIHSSVQKKAKGPVHIVHSENWVVYQYWNTKARRNEFTVLELYEGTEQYNATAFSSLDRPQLPQVLQQSYIFPSSISAMEATITERGITSRHLLIGLPSGAILSLPKALLDPRRPEIPTEQSREENLIPYSPDVQIHAERFINYNQTVSRMRGIYTAPSGLESTCLVVAYGLDIYQTRVYPSKQFDVLKDDYDYVLISSVLFGLVFATMITKRLAQVKLLNRAWR
With B6, the binding result is recorded as “binds”.

B7: SRP72 subunit of the signal recognition particle (protein, UniProt O76094 1-671)
chain: MASGGSGGVSVPALWSEVNRYGQNGDFTRALKTVNKILQINKDDVTALHCKVVCLIQNGSFKEALNVINTHTKVLANNSLSFEKAYCEYRLNRIENALKTIESANQQTDKLKELYGQVLYRLERYDECLAVYRDLVRNSQDDYDEERKTNLSAVVAAQSNWEKVVPENLGLQEGTHELCYNTACALIGQGQLNQAMKILQKAEDLCRRSLSEDTDGTEEDPQAELAIIHGQMAYILQLQGRTEEALQLYNQIIKLKPTDVGLLAVIANNIITINKDQNVFDSKKKVKLTNAEGVEFKLSKKQLQAIEFNKALLAMYTNQAEQCRKISASLQSQSPEHLLPVLIQAAQLCREKQHTKAIELLQEFSDQHPENAAEIKLTMAQLKISQGNISKACLILRSIEELKHKPGMVSALVTMYSHEEDIDSAIEVFTQAIQWYQNHQPKSPAHLSLIREAANFKLKYGRKKEAISDLQQLWKQNPKDIHTLAQLISAYSLVDPEKAKALSKHLPSSDSMSLKVDVEALENSAGATYIRKKGGKVTGDSQPKEQGQGDLKKKKKKKKGKLPKNYDPKVTPDPERWLPMRERSYYRGRKKGKKKDQIGKGTQGATAGASSELDASKTVSSPPTSPRPGSAATVSASTSNIIPPRHQKPAGAPATKKKQQQKKKKGGKGGW
Turning to B7, the binding result is listed as “binds”.

B8: OSTC subunit of the N-oligosaccharyltransferase (OST) complex (protein, UniProt Q9NRP0 1-149)
chain: METLYRVPFLVLECPNLKLKKPPWLHMPSAMTVYALVVVSYFLITGGIIYDVIVEPPSVGSMTDEHGHQRPVAFLAYRVNGQYIMEGLASSFLFTMGGLGFIILDRSNAPNIPKLNRFLLLFIGFVCVLLSFFMARVFMRMKLPGYLMG
Take B8: the binding result is “binds”.

The values are drawn from publication PMC12013442.
